At least one structure is not confirmed: it was looked up by name or label, or the drawing left a doubt.
Tested on: human PBMC
Experiment: Culture of human PBMC with GM-CSF (K562-GM) and PPAR-γ modulators: Treg numbers
Type: cell-based
Settings: 10 uM Rosi or T0070907 luM every 48 hours

CN(CCOc1ccc(CC2SC(=O)NC2=O)cc1)c1ccccn1 (centres unmarked) [Rosi, rosiglitazone] was tested. Which “Treg number / GM-CSF induced Treg expansion” value (day 4-6) did it give?
The value was “reduce”.

And the “Treg number / GM-CSF induced Treg expansion” value (day 4-6, listed as Rosiglitazone)?
Its value is “reduced”.

— patent publication US20180228775A1, “METHODS OF TREATING CANCER” (Dana-Farber Cancer Institute, Inc., priority 2014, published 2018)
